Data as given in PubChem BioAssay AID504804 (Drosophila RNAi Screening Center, 2011).
The screen tested about 19,000 reagents; this is an unselected part of those with a known target gene and a result. In the full data, 47 (0.25%) are marked active. 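Signals are raw, not normalised; exact z-scores behind calls not deposited; actives needed confirmation, so some wells reaching 2 SD are inactive.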 Entries without a mark were called inactive. Reagents against one gene are numbered here.

Test: 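dsRNAs that improve Kc cell survival under doxorubicin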 (primary screen)
Cell system: Drosophila Kc cells
Reagents: long dsRNA against Drosophila genes, 0.5 µg dsRNA per well
Duration: 96 h (48 h knock-down, then 48 h drug)
Conditions: doxorubicin 5 µg/ml for 48 h, added 48 h after dsRNA
Detection: 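Luminescent ATP counts per replicate, not normalised, reflecting viable cells after 48 h dsRNA knock-down followed by 48 h of 5 µg/ml doxorubicin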
Scale: raw ATP luminescence: higher = more viable cells, protection from doxorubicin
Rule for the call: 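Active when both duplicate wells lie at least 2 SD above the plate mean and protection is confirmed by rescreening and independent dsRNAs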

no.	predicted target	reagent	raw ATP luminescence, replicate 1	raw ATP luminescence, replicate 2
1	Dop1R1 (Dopamine 1-like receptor 1)	1	2.38e5	2.75e5
2	Dop1R1 (Dopamine 1-like receptor 1)	2	93530	61260
3	CG12692	1	36280	51920
4	Psf2 (Partner of Sld Five 2)	1	18557	19690
5	CG14327	1	68890	72420
6	Six4	1	50603	57940
7	CG13081	1	51337	48080
8	yellow-e3	1	67290	68520
9	CG42673	1	1.75e5	1.71e5
10	CG42673	2	19457	19813
11	CG42673	3	76353	61880
12	CG42673	4	72620	63917
13	CG42673	5	74860	71453
14	CG42673	6	65740	82690
15	CG43795	1	46870	65923
16	CG43795	2	50400	63533
17	CG43795	3	58117	46777
18	CG43795	4	57317	47283
19	CG43795	5	54207	46557
20	CG15202	1	3.55e5	3.19e5
21	ATPsynbeta (ATP synthase, beta subunit)	1	43440	53480
22	para (paralytic)	1	1.74e5	1.80e5
23	para (paralytic)	2	2.13e5	1.82e5
24	AOX4 (Aldehyde oxidase 4)	1	74990	45850
25	CG32432	1	29590	29807
26	CG32432	2	43280	39970
27	CG32432	3	70020	59697
28	CG13004	1	3.54e5	3.25e5
29	Datp (Diadenosine tetraphosphatase)	1	2.53e5	3.06e5

No new results follow: entries from further up.
no.	predicted target	reagent	raw ATP luminescence, replicate 1	raw ATP luminescence, replicate 2
20	CG15202	1	3.55e5	3.19e5
21	ATPsynbeta (ATP synthase, beta subunit)	1	43440	53480
22	para (paralytic)	1	1.74e5	1.80e5
23	para (paralytic)	2	2.13e5	1.82e5
24	AOX4 (Aldehyde oxidase 4)	1	74990	45850
25	CG32432	1	29590	29807
26	CG32432	2	43280	39970
27	CG32432	3	70020	59697

The results go on.
no.	predicted target	reagent	raw ATP luminescence, replicate 1	raw ATP luminescence, replicate 2
30	CG15422	1	26293	32257
31	MME1 (Mitochondrial Magnesium Exporter 1)	1	1.17e5	67893
32	Sfp53D (Seminal fluid protein 53D)	1	1.65e5	1.51e5
33	CG4250	1	40973	68693
34	pAbp (poly(A) binding protein)	1	52113	63247
35	Magi	1	64887	66983
36	Magi	2	24700	32830
37	CCT4 (Chaperonin containing TCP1 subunit 4)	1	58803	73100
38	CG14050	1	55000	69690
39	CG32388	1	1.60e5	1.72e5
40	Cad89D (Cadherin 89D)	1	79660	73320
41	CG16700	1	3.29e5	2.94e5
42	Ctr9	1	60313	70953
43	Leash	1	46157	46267
44	Scgdelta (Sarcoglycan delta)	1	67700	57510
45	CG6724	1	39083	69310
46	CG9752	1	51127	63283
47	RabGGTb (Rab geranylgeranyltransferase subunit beta)	1	1.10e5	90347
48	Sf3a1 (Splicing factor 3a subunit 1)	1	32110	39323
49	dpy (dumpy)	1	2.74e5	2.71e5
50	dpy (dumpy)	2	2.80e5	2.50e5
51	dpy (dumpy)	3	43920	26697
52	Krn (Keren)	1	89900	72913
53	CG14322	1	18830	22820
54	Pbp95 (PSEA-binding protein 95kD)	1	54373	53877
55	Pop5 (POP5 ribonuclease P/MRP subunit)	1	33907	24977
56	Rab3	1	67353	47923
57	loopin-1	1	49047	62690
58	CG14105	1	60430	63897
59	CG7694	1	74730	63830
60	CG11068	1	3.32e5	2.96e5
61	CG13640	1	58960	62310
62	CG2616	1	63090	68697
63	rl (rolled)	1	3.30e5	3.17e5
64	tra (transformer)	1	84753	60870
65	CG5866	1	95050	61210
66	SmydA-9 (SET and MYND domain containing, arthropod-specific, member 9)	1	3.03e5	3.39e5
67	NKAIN (Na,K-ATPase Interacting)	1	59663	78963
68	okr (okra)	1	1.11e5	68730
69	Pus10 (Pseudouridine synthase 10)	1	1.04e5	77850
70	Spn (Spinophilin)	1	1.70e5	1.14e5
71	Spn (Spinophilin)	2	62027	68657
72	CG4390	1	36067	36710
73	CG5768	1	46313	56197
74	CG12511	1	31853	25783
75	usp (ultraspiracle)	1	51300	37950
76	cta (concertina)	1	67220	69683
77	tapas	1	61367	69477
78	mRpL43 (mitochondrial ribosomal protein L43)	1	53357	57723
79	CG9628	1	17153	20557
80	ND-B18 (NADH dehydrogenase (ubiquinone) B18 subunit)	1	3.51e5	2.83e5
81	Fgop2 (Fibroblast growth factor receptor 1 oncogene partner 2)	1	1.04e5	66240
82	CG5986	1	49143	53723
83	Crtp (Caldesmon-related protein)	1	55797	48410
84	Dph2 (Diphthamide biosynthesis 2)	1	52640	20470
